Results published in publication PMC3663501.
No constants are given. Whether binding was seen depends on the method and setting. Sequences can lack the tags named with a protein.

By UniProt entry, the sequences of proteins in these tests, tags left out. Where a name states a change or a piece, a line headed by the entry shows the natural chain unless it says otherwise. Chains listed by the source or under a name are the forms on record and can include a tag or linker.
220-kDa ankyrin-B-GFP (Q01484-2, form named): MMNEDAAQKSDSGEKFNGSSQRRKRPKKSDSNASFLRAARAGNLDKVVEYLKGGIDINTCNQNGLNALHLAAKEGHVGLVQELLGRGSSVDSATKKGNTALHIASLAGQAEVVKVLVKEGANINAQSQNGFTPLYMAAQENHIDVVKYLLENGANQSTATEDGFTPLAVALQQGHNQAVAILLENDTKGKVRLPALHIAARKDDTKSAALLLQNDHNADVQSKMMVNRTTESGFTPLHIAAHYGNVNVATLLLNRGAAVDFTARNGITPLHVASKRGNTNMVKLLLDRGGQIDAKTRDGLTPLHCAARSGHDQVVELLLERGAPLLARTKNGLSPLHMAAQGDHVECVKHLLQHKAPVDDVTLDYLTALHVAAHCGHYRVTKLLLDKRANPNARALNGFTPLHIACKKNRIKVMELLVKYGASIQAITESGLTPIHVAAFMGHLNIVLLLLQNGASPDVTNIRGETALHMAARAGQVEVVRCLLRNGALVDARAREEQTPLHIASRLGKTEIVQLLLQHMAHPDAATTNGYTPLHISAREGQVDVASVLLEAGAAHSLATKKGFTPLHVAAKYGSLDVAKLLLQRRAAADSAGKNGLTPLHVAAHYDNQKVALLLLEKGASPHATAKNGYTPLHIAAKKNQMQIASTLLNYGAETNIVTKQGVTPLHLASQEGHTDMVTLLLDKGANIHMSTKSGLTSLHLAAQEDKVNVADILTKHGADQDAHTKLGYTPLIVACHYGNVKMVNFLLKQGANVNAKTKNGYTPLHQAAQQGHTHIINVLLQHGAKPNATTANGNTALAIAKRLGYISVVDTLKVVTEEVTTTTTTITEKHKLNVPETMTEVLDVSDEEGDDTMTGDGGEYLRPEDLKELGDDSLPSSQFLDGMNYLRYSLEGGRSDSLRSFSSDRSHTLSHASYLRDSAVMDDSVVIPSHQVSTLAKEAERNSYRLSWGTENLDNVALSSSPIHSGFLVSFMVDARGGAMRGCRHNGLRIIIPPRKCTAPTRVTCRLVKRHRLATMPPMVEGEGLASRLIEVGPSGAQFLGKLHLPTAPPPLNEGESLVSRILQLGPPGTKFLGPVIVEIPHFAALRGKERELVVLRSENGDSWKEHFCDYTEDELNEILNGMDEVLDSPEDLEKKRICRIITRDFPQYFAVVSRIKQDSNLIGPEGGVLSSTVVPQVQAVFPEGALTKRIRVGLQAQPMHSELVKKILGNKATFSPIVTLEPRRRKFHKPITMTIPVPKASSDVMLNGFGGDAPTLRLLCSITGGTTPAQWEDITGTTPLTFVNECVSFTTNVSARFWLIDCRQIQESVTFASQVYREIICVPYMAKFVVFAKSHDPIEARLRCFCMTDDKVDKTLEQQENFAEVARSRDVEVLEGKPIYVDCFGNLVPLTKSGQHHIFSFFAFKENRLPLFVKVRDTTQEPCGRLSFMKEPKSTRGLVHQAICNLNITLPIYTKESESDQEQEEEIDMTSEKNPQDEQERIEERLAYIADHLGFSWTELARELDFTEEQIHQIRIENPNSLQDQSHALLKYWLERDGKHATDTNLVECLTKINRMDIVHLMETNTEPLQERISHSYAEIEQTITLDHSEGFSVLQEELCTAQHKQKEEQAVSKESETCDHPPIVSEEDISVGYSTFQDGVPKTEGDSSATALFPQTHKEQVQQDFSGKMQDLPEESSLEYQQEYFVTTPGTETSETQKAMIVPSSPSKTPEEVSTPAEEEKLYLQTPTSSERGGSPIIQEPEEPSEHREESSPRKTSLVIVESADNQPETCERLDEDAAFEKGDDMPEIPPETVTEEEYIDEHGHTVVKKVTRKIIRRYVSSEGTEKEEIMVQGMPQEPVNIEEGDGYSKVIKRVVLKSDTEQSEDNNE

Biological target: T1, HA-tagged neurofascin 186 (UniProt P97685)
T1 sequence: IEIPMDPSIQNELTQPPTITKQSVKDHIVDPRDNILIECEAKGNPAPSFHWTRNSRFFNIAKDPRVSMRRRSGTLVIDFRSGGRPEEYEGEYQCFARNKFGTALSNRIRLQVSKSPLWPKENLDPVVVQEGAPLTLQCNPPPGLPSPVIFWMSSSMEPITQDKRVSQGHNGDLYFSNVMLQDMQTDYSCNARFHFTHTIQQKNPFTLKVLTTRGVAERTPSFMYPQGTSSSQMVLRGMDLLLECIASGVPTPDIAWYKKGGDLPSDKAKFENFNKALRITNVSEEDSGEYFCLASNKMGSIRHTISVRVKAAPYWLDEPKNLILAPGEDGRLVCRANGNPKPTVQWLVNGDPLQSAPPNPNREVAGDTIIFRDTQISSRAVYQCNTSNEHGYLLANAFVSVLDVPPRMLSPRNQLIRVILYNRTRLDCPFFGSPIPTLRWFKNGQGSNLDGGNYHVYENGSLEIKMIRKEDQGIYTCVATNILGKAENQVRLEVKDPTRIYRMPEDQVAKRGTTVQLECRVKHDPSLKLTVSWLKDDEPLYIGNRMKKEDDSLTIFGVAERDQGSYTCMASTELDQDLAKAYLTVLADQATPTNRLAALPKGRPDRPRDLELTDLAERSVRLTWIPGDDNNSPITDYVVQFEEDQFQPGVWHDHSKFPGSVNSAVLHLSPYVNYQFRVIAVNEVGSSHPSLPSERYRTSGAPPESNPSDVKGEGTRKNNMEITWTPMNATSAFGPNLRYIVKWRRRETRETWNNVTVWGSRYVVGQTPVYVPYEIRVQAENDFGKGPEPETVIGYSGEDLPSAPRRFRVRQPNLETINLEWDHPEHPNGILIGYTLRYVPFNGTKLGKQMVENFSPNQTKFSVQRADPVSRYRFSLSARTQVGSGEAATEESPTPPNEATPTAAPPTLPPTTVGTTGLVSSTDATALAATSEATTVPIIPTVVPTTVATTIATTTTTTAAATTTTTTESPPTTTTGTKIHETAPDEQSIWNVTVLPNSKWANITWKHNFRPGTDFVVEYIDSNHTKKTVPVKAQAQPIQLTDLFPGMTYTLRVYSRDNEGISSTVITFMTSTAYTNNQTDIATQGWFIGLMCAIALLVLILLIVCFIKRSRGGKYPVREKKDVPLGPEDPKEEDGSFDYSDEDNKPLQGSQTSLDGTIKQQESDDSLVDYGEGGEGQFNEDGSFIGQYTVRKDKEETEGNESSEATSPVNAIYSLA
Assay: membrane recruitment assay (immunofluorescence of cotransfected cells); HEK293 cells cotransfected with HA-tagged neurofascin-186 or E-cadherin and GFP-tagged ankyrin; fixed 24 h later; read-out is recruitment of ankyrin-GFP from the cytoplasm to the plasma membrane

- binding: no binding
Substance: 220-kDa ankyrin-B-GFP (from UniProt Q01484-2 1-1872)
